# Assay results reported in PubChem BioAssay (EPA / NIEHS).
# Amino acid sequences for entries named in this document (tags omitted). A change or cut given only in a name is not applied to a line headed by its entry.
# UniProt P15204: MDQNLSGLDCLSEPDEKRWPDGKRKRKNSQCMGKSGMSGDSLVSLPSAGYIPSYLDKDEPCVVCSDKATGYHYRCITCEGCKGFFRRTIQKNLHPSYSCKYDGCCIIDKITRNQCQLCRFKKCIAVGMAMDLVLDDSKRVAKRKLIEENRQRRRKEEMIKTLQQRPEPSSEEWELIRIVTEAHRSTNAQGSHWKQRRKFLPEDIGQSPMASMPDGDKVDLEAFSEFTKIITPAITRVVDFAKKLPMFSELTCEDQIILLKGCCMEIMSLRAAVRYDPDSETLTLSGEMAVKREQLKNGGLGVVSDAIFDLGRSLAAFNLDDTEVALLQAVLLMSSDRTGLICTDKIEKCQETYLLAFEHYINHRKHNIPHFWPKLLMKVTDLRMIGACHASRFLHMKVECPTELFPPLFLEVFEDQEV
# UniProt P30191, whole entry, looked up: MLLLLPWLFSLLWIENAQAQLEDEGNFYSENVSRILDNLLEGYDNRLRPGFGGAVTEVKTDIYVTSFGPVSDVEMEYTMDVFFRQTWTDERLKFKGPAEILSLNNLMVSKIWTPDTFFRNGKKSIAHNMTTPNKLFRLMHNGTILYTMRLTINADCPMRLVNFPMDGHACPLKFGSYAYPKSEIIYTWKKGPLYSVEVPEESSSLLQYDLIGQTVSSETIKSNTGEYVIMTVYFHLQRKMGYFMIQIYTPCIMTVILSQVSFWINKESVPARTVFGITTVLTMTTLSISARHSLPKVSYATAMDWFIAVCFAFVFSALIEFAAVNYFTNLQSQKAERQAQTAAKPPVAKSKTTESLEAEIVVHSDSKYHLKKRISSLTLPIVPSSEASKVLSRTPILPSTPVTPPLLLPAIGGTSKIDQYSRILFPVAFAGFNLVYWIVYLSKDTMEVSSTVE
# UniProt P29323: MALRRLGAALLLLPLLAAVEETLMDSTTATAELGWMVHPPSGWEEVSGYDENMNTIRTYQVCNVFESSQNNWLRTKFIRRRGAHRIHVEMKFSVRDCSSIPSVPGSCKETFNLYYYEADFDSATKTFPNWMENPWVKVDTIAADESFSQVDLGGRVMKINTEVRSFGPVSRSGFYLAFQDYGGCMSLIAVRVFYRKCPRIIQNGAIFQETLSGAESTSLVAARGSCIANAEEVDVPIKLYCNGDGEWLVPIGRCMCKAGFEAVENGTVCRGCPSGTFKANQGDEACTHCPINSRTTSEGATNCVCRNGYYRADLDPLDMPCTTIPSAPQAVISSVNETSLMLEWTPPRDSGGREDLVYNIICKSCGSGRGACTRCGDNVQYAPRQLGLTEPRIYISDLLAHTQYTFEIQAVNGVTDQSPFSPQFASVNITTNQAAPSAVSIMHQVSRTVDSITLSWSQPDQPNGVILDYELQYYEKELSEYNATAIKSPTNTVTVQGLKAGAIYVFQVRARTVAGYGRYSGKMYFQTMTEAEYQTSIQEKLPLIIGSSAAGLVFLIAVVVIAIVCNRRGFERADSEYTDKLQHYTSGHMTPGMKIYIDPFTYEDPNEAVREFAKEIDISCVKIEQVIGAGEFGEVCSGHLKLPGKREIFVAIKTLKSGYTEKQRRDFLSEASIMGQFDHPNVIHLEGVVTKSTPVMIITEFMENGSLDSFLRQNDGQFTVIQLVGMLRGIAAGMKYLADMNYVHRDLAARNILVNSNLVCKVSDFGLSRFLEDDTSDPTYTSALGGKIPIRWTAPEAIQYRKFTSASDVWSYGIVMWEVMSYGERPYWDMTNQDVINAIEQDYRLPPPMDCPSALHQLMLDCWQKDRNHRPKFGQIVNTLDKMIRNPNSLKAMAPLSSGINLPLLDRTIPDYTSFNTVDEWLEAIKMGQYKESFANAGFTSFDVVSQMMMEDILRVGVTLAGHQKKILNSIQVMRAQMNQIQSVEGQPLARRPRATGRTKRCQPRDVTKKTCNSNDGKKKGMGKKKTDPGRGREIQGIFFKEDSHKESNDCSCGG
# UniProt P19793: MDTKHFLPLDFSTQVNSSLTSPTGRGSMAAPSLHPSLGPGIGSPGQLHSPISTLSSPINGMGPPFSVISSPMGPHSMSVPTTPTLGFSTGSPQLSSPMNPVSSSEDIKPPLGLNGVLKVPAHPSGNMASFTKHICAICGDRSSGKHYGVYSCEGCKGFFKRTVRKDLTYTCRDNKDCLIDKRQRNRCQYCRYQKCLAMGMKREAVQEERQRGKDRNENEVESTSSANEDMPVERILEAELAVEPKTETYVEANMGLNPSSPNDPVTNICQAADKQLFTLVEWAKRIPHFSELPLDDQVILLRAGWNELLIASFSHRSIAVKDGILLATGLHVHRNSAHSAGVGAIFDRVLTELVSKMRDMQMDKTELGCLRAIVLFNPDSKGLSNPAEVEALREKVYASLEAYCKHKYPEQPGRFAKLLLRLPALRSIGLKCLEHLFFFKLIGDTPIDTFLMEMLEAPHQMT
# UniProt P14780: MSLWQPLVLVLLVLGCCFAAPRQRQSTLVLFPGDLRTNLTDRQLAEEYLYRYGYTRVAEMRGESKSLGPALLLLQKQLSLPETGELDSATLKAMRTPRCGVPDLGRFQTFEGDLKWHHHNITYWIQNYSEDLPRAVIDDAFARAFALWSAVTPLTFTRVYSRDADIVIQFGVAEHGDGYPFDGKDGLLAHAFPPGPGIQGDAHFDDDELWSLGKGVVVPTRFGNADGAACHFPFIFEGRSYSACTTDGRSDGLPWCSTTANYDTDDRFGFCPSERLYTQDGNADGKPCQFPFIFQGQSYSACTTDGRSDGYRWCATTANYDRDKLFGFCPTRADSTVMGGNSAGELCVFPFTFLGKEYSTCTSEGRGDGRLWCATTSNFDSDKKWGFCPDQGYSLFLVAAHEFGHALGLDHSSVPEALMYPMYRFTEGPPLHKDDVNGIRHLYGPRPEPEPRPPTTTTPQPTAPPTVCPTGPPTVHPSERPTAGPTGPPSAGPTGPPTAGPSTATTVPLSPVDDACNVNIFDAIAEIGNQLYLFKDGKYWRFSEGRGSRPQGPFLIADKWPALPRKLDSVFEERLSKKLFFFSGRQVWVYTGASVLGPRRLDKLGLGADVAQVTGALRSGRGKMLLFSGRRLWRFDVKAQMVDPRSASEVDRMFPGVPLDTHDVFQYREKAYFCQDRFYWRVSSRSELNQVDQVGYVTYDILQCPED
# UniProt P60484: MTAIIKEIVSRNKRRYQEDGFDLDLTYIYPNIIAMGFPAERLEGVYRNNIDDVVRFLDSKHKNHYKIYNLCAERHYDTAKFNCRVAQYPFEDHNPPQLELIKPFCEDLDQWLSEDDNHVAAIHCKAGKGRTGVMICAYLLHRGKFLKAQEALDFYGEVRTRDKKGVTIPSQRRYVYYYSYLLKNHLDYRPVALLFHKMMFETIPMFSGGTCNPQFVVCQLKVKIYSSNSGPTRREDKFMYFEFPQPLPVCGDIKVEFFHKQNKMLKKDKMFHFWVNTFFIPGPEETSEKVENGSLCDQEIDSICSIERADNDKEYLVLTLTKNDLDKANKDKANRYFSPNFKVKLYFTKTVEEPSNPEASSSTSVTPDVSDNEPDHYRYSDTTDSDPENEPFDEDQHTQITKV
# UniProt P03372, whole entry, looked up: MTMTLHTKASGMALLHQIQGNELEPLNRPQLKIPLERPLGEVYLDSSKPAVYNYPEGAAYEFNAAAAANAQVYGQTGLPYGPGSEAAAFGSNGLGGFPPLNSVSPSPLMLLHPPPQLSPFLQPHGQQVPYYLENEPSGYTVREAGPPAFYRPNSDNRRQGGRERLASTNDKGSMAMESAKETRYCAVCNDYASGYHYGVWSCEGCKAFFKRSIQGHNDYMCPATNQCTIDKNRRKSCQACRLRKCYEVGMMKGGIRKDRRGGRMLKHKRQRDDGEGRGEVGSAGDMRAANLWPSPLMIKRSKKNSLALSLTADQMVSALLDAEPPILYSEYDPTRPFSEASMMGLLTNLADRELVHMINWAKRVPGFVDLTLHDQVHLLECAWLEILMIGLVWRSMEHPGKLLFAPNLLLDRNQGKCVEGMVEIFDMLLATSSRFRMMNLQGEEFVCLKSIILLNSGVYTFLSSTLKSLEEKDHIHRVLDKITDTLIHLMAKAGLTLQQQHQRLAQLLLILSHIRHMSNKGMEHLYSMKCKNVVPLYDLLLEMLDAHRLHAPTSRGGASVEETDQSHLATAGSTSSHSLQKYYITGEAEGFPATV
# UniProt P19643, whole entry, looked up: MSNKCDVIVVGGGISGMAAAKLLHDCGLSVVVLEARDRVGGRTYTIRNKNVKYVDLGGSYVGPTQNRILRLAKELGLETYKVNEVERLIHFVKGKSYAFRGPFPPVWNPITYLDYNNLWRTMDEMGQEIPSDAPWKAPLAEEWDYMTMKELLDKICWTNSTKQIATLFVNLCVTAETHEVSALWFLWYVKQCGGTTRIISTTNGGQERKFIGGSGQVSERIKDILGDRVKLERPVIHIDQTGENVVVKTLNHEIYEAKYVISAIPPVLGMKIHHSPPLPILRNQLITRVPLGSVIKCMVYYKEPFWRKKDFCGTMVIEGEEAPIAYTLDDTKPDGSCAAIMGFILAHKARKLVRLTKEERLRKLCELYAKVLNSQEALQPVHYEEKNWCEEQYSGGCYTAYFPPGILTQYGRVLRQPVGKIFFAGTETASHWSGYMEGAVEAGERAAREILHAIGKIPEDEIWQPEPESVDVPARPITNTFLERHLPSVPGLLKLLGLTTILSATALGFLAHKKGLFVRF
# UniProt P10275: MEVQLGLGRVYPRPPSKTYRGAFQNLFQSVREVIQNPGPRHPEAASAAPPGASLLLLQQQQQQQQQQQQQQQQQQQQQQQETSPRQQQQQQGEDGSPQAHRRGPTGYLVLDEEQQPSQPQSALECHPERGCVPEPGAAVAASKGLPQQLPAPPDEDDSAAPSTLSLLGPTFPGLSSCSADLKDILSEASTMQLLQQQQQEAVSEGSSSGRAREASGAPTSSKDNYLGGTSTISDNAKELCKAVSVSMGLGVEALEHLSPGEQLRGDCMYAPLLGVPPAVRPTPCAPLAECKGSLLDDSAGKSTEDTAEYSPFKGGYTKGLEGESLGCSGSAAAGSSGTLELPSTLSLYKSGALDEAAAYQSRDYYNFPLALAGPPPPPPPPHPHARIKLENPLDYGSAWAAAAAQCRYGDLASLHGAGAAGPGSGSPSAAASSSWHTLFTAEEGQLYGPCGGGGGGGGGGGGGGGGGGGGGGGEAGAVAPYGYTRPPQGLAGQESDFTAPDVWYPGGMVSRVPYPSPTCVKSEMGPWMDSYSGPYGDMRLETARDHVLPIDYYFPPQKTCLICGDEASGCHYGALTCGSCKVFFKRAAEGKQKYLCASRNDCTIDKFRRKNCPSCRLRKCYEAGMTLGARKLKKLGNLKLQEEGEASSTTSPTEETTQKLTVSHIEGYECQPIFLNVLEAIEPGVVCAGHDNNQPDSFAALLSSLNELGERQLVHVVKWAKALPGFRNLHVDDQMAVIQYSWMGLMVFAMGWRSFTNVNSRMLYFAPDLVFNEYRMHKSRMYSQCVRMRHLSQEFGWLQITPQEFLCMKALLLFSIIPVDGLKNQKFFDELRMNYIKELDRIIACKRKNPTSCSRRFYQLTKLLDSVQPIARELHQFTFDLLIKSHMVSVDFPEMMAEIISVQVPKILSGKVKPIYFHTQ
# UniProt P03956: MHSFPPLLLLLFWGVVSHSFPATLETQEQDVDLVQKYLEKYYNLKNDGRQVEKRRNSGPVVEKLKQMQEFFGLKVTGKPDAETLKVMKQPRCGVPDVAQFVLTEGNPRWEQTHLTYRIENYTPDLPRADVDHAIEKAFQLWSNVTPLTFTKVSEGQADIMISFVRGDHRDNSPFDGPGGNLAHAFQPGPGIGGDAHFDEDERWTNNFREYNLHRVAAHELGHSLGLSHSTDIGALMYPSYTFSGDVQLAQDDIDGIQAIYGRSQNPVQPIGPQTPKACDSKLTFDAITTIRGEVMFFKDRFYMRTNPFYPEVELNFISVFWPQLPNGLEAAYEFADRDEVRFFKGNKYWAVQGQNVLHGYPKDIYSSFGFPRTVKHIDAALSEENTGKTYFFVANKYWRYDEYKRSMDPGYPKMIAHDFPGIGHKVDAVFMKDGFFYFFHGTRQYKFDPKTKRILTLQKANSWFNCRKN
# UniProt P24462, whole entry, looked up: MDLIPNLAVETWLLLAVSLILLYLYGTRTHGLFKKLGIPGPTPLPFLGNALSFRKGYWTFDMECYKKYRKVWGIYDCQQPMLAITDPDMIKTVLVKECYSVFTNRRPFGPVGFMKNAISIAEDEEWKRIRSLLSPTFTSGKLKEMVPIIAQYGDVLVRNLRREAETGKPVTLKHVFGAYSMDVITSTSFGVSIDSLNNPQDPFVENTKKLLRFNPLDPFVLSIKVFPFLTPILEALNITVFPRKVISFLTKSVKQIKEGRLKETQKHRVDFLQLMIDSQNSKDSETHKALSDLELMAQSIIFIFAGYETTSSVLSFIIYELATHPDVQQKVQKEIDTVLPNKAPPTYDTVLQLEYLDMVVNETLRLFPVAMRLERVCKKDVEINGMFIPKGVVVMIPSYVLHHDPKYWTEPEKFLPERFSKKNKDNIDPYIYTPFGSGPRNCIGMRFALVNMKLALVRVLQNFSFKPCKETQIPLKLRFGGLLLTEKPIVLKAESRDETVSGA
# For some assays here: Shown are results outside the selection of hits, which stands elsewhere. Inconclusive results are not listed. This is a selection; strong and weak results do not stand in their true shares. The source made the active and inactive calls. How the source made its calls, unless noted: active means hit-call score of the fitted dose curve at least 0.9, where 1 is the maximum; inconclusive means response in the unintended direction; inactive means score below 0.9.
# Key:
# [1] = BSK_SAg_Proliferation: Cell Proliferation Assessment in the BioMAP Diversity Plus: SAg Assay (AID 2283095; active means hit-call score of the fitted dose curve at least 0.9, where 1 is the maximum; inactive means score below 0.9;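 further: relative cell number as total protein by SRB absorbance in sub-confluent culture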); conditions: primary human HUVEC with PBMC
# How it was run: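 HUVEC/PBMC co-culture, 96-well. TCA-fixed (10%), 0.1% SRB stain, A560 at 96 h. Protein content used as viability readout; bidirectional fitting vs DMSO control.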
# [2] = target: frog Thyroid hormone Receptor alpha (TRa), thra-a (gene 397942) (UniProt P15204); assay: ATG_frTRa_XSP2: Attagene TRANS-FACTORIAL Multi-Species (XSP2) HepG2 Assay for frog Thyroid hormone Receptor alpha (TRa) (AID 2283839)
# How it was run: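 Read-out: fluorescent reporter-transcript fragments resolved by capillary electrophoresis after RT-PCR and HpaI cut. Human HepG2 liver cells carry a transfected frog TRα-Gal4 chimera driving a UAS reporter; 24 h exposure, DMSO baseline, positive-direction fit.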
# [3] = CCTE_Mundy_HCI_Cortical_NOG_NeuriteCount: CCTE's Neurite Outgrowth Assay in rat cortical cells for Neurite Count, Mundy Lab (AID 2284212; active means hit-call score of the fitted dose curve at least 0.9, where 1 is the maximum; inactive means score below 0.9;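 further: cells fixed about two days after chemical exposure began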)
# How it was run: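 Rat cortical primary cells; compound added 2 h post-plating, 1/10 dilution of working solution. Anti-betaIII-tubulin/AF488 ICC; ArrayScan neurite count vs DMSO.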
# [4] = read-out: urokinase plasminogen activator (uPA), PLAU (gene 5328); assay: BSK_KF3CT_uPA: BioMAP Diversity Plus: KF3CT Assay for urokinase plasminogen activator (uPA) Biomarker Activity (AID 2283075; active means hit-call score of the fitted dose curve at least 0.9, where 1 is the maximum; inactive means score below 0.9); conditions: actives raise or lower the signal; primary human keratinocytes with fibroblasts
# How it was run: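 Skin co-culture (keratinocytes + foreskin fibroblasts), human primary; 24 h post-dose; uPA by ELISA; gain/loss fit vs DMSO baseline.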
# [5] = target: human Tyrosine Protein Kinase Receptor Tie-2 (Tie2), TEK (gene 7010) (UniProt Q02763); assay: NVS_ENZ_hTie2: NovaScreen (NVS) Enzymatic Assay for human Tyrosine Protein Kinase Receptor Tie-2 (Tie2) (AID 2283225)
# How it was run: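 Substrate and product were separated by mobility shift and detected by fluorescence after a 1-hour reaction with recombinant Tie2. Chemicals passing a 25 uM single-point screen were titrated to a maximum of 50 uM. Results were normalized to DMSO baseline.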
# [6] = target: rat Gamma-Aminobutyric Acid Type A Receptor BDZ, alpha 6 site (GABARa6), Gabra6 (gene 29708) (UniProt P30191); assay: NVS_LGIC_rGABARa6: NovaScreen (NVS) Ligand-Gated Ion Channel Assay for rat Gamma-Aminobutyric Acid Type A Receptor BDZ, alpha 6 site (GABARa6) (AID 2283339)
# How it was run: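 Actives from a 25 uM duplicate screen were retested in concentration series (max 50 uM). Specific radioligand displacement from rat cerebellar membranes was counted by filter-based scintillation at 1 h; DMSO served as baseline.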
# [7] = target: human Ephrin type-B Receptor 2 (EphB2), EPHB2 (gene 2048) (UniProt P29323); assay: NVS_ENZ_hEphB2: NovaScreen (NVS) Enzymatic Assay for human Ephrin type-B Receptor 2 (EphB2) (AID 2283156)
# How it was run: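 Compounds were first tested in duplicate at 25 uM, with hits rerun singly in concentration series up to 50 uM. Enzyme activity on fluorescent substrate was read at 1 h by mobility-shift separation, scored as signal loss relative to DMSO.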
# [8] = target: Retinoic acid receptor RXR-alpha (Homo sapiens) (UniProt P19793); assay: OT_NURR1_NURR1RXRa_1440: Odyssey Thera (OT) 24-hour HEK293T Protein Complementation Assay for Nurr1/retinoid X receptor (RXR) (AID 2283386)
# How it was run: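 Fluorescence PCA read-out; HEK293T; 24 h post-dose; bait/prey fused to reporter fragments; gain-of-signal fit vs DMSO negative control.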
# [9] = target: human Matrix Metalloproteinase-9 (MMP9), MMP9 (gene 4318) (UniProt P14780); assay: NVS_ENZ_hMMP9: NovaScreen (NVS) Enzymatic Assay for human Matrix Metalloproteinase-9 (MMP9) (AID 2283190);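 further: cell-free recombinant MMP9 protease activity read by fluorescent substrate signal; active means inhibition seen as loss of fluorescence signal versus DMSO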
# [10] = target: human Phosphatase and Tensin Homolog (PTEN), PTEN (gene 5728) (UniProt P60484); assay: NVS_ENZ_hPTEN: NovaScreen (NVS) Enzymatic Assay for human Phosphatase and Tensin Homolog (PTEN) (AID 2283203)
# [11] = target: human Fibroblast Growth Factor Receptor 1 (FGFR1), FGFR1 (gene 2260) (UniProt P11362); assay: NVS_ENZ_hFGFR1: NovaScreen (NVS) Enzymatic Assay for human Fibroblast Growth Factor Receptor 1 (FGFR1) (AID 2283159);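 further: hits lower the signal so potencies describe inhibitors of the kinase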
# [12] = target: Estrogen receptor (Homo sapiens) (UniProt P03372); assay: CCTE_Deisenroth_AIME_384WELL_LUC_Shift: CCTE's 384-well Estrogen Receptor Transactivation Assay with AIME metabolic competence data shift (ERTA luciferase; difference in metabolism positive and negative), Deisenroth Lab (AID 2284041; active means hit-call score of the fitted dose curve at least 0.9, where 1 is the maximum; inactive means score below 0.9;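 further: shift is response with S9 minus without S9 so positive means metabolism raised ER signal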)
# How it was run: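 Chemicals (0.002–200 uM, 10 points) pre-incubated 2 h with alginate-encapsulated induced male Sprague Dawley rat liver S9 or S9-free, then medium applied 24 h to VM7Luc4E2 cells; luciferase. Endpoint is per-concentration difference, S9-positive minus negative.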
# [13] = target: rat Monoamine Oxidase, MAO-B, Peripheral (MAOBP), Maob (gene 25750) (UniProt P19643); assay: NVS_ENZ_rMAOBP: NovaScreen (NVS) Enzymatic Assay for rat Monoamine Oxidase, MAO-B, Peripheral (MAOBP) (AID 2283242)
# [14] = target: Androgen Receptor/SRC-1 Co-activator, AR (gene 367) (UniProt P10275); assay: OT_AR_ARSRC1_0960: Odyssey Thera (OT) 16-hour HEK293T Protein-Complementation Assay for Androgen Receptor/SRC-1 Co-activator (AID 2283353);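 further: actives raise the signal above DMSO so potency reflects increased AR and SRC-1 complex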
# How it was run: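 Readout: 488 nm nuclear-to-cytoplasmic fluorescence ratio from imaging of at least 400 cells per image, 16 h post-dose. Reporter is Venus YFP complementation between AR and SRC-1 fusions, stably expressed in HEK293T; activity scored upward relative to DMSO.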
# [15] = target: human Matrix Metalloproteinase-1 (MMP1), MMP1 (gene 4312) (UniProt P03956); assay: NVS_ENZ_hMMP1: NovaScreen (NVS) Enzymatic Assay for human Matrix Metalloproteinase-1 (MMP1) (AID 2283181)
# How it was run: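 Cell-free fluorescent substrate assay of human MMP1, read after 1 h. A single 25 uM duplicate screen was followed by concentration series to a maximum of 50 uM for actives meeting threshold; inhibition analysed against DMSO baseline.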
# [16] = system: rat Monoamine Oxidase, MAO-A, Peripheral (MAOAP), gene 29253; assay: NVS_ENZ_rMAOAP: NovaScreen (NVS) Enzymatic Assay for rat Monoamine Oxidase, MAO-A, Peripheral (MAOAP) (AID 2283237)
# Procedure: NVS_ENZ_rMAOAP is a biochemical, single-readout assay that uses extracted gene-proteins from Rat liver mitochondrial membranes in a tissue-based cell-free assay. Measurements were taken 1.17 hours after chemical dosing in a 96-well plate.NVS_ENZ_rMAOAP is one of one assay component(s) measured or calculated from the NVS_ENZ_rMAOAP assay. It is designed to make measurements of enzyme activity, a form of enzyme reporter, as detected with scintillation counting signals by Lysate-based radiodetection technology.Data from the assay component NVS_ENZ_rMAOAP was analyzed into 1 assay endpoint. This assay endpoint, NVS_ENZ_rMAOAP, was analyzed in the positive analysis fitting direction relative to DMSO as the negative control and baseline of activity. Using a type of enzyme reporter, loss-of-signal activity can be used to understand changes in the enzymatic activity as they relate to the gene Maoa. Furthermore, this assay endpoint can be referred to as a primary readout, because this assay has produced multiple assay endpoints where this one serves a enzymatic activity function. To generalize the intended target to other relatable targets, this assay endpoint is annotated to the oxidoreductase intended target family, where the subfamily is monoamine oxidase. […]
# [17] = read-out: Cytochrome P450 3A7 (Homo sapiens) (UniProt P24462); assay: LTEA_HepaRG_CYP3A7: Life Technologies and Expression Analysis (LTEA) Assay for CYP3A7 using HepaRG (AID 2283492; active means hit-call score of the fitted dose curve at least 0.9, where 1 is the maximum; inactive means score below 0.9); conditions: actives raise or lower the signal; mRNA level, 48 h
# How it was run: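 CYP3A7 transcript levels were read by TaqMan qRT-PCR on Fluidigm arrays after 48 h chemical exposure of human HepaRG cells, with housekeeping-gene normalisation. Eight half-log concentrations up to 100 uM in 0.5% DMSO were tested in duplicate.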
compound,measurement,setting,value
CCCCC(CC)COC(=O)c1ccccc1C(=O)OCC(CC)CCCC (configuration not stated),AC50,[1],active: 13.7 µM
same,outcome,[2],inactive
same,AC50,[3],active: 13.3 µM
CC(C)(C)c1ccccc1O,outcome,[4],inactive
O=C1NC(=O)C(c2ccccc2)(c2ccccc2)N1,outcome,[5],inactive
CCCCCCCC(=O)O,outcome,[6],inactive
CCNc1nc(Cl)nc(NC(C)C)n1,outcome,[7],inactive
same,outcome,[8],inactive
CC(C)=CC1C(C(=O)OCc2cccc(Oc3ccccc3)c2)C1(C)C (configuration not stated),AC50,[9],active: 15.1 µM
NC(=NCCCCCCN=C(N)/N=C(\N)Nc1ccc(Cl)cc1)/N=C(\N)Nc1ccc(Cl)cc1,AC50,[10],active: 15.2 µM
CC(C)=CC1C(C(=O)OCc2coc(Cc3ccccc3)c2)C1(C)C (configuration not stated),AC50,[11],active: 38.1 µM
same,AC50,[12],active: 87 µM
CON(C)C(=O)Nc1ccc(Cl)c(Cl)c1,outcome,[13],inactive
CCOP(=S)(OCC)Oc1nc(Cl)c(Cl)cc1Cl,AC50,[14],active: 76.7 µM
Nc1nc(Cl)nc2c1ncn2[C@H]1C[C@H](O)[C@@H](CO)O1,outcome,[15],inactive
Nc1ccc(-c2ccc(N)cc2)cc1,AC50,[16],active: 30.7 µM
same,outcome,[17],inactive
